Experimental findings from patent publication US20180340025A1 are described below.

Substitutions are numbered along the chain they refer to. Results are given in words; binding and its absence hold for the method and conditions named. Some entries that bind do so weakly or less than the wild type. For part of these data: Where a sequence is shown, tags or fusion partners need not be part of it.

The target of assay [1] is T1, LAG-3-huIgG1 Fc fusion protein (human) (UniProt P18627).
T1 sequence (looked up): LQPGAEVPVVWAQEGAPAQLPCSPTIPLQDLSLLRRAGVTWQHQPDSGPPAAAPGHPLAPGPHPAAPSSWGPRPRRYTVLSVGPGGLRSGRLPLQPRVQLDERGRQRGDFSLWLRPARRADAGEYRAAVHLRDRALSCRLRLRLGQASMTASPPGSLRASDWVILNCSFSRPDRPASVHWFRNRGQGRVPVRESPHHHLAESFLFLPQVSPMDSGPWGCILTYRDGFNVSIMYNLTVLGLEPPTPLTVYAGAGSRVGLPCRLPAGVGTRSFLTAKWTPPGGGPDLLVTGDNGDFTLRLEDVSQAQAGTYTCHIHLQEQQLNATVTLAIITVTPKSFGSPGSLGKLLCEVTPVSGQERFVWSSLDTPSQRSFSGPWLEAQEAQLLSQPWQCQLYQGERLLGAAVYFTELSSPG
Kind of assay: FACS blocking assay: serial dilutions of the mAb with LAG-3-huIgG1 Fc at 2 µg/mL on Daudi cells (MHC class II); bound LAG-3-Ig detected with PE anti-human IgG F(ab')2.

In assay [2] the target is T2, LAG-3 with partial deletion of D1 extra loop expressed on CHO cells (UniProt P18627).
T2 sequence (looked up): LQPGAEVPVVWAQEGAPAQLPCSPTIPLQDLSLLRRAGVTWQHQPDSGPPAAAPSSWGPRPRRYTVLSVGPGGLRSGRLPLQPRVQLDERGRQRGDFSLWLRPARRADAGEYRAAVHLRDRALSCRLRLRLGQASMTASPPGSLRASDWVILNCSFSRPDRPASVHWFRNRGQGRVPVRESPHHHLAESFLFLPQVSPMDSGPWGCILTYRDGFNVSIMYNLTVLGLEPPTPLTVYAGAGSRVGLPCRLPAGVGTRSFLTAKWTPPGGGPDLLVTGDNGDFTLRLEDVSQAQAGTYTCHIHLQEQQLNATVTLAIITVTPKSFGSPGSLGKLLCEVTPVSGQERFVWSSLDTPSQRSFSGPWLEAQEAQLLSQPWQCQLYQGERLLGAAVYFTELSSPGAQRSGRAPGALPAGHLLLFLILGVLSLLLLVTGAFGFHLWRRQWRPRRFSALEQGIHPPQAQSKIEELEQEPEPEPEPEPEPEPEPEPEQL
The assay can be described thus: binding to transfected CHO cells.

The target in assay [3] is T3, LAG-3 with D2 deletion expressed on CHO cells (UniProt P18627).
T3 sequence (looked up): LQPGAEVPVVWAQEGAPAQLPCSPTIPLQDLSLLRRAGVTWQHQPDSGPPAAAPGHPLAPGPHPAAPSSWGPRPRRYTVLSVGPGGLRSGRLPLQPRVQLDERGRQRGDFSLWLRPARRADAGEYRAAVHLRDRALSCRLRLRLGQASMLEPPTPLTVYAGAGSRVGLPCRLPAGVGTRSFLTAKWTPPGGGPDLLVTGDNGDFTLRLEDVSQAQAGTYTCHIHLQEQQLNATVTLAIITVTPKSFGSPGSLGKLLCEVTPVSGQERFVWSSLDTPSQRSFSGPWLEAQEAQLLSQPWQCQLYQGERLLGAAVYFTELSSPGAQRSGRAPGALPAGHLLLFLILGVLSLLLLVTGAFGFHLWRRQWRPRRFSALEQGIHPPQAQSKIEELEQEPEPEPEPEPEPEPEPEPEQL
The assay can be described thus: binding to transfected CHO cells.

B1: BAP050-hum02-Ser (antibody, human IgG4 S228P, kappa, V domains shown)
VH: EVQLVQSGAEVKKPGATVKISCKVSGFTLTNYGMNWVRQAPGQGLEWMGWINTDTGEPTYADDFKGRFVFSLDTSVSTAYLQISSLKAEDTAVYYCARNPPYYYGTNNAEAMDYWGQGTTVTVSS
VL: DIQMTQSPSSLSASVGDRVTITCSSSQDISNYLNWYQQKPGKAPKLLIYYTSTLHLGIPPRFSGSGYGTDFTLTINNIESEDAAYYFCQQYYNLPWTFGQGTKVEIKR
With B1, the binding entry in assay [1] is on record as “binds”.

B2: BAP050-hum12-Ser (antibody, human IgG4 S228P, kappa, V domains shown)
VH: B1 VH with E1Q, T17S, I20V, V24A, P41R, G44R, M48I
VL: EIVLTQSPDFQSVTPKEKVTITCSSSQDISNYLNWYQQKPGQAPRLLIYYTSTLHLGVPSRFSGSGSGTDFTLTISSLQPEDFATYYCQQYYNLPWTFGQGTKVEIKR
B2: in assay [1], the binding result is reported as “binds”.

B3: BAP050-hum13-Ser (antibody, human IgG4 S228P, kappa, V domains shown)
VH: B1 VH with E1Q, T17S, I20V, V24A
VL: B1 VL
As to B3, in assay [1], the binding result is “binds”.

B4: BAP050-hum11-Ser (antibody, human IgG4 S228P, kappa, V domains shown)
VH: B1 VH with E1Q, T17S, I20V, V24A, P41R, G44R, M48I
VL: DIQMTQSPSSLSASVGDRVTITCSSSQDISNYLNWYLQKPGQSPQLLIYYTSTLHLGVPSRFSGSGSGTEFTLTISSLQPDDFATYYCQQYYNLPWTFGQGTKVEIKR
For B4, the binding entry in assay [1] was “binds”.

B5: BAP050-hum09-Ser (antibody, human IgG4 S228P, kappa, V domains shown)
VH: B1 VH with E1Q, T17S, I20V, V24A, P41R, G44R, M48I
VL: B1 VL
As for B5, the binding entry in assay [1] is given as “binds”.

B6: murine anti-LAG-3 monoclonal antibody BAP050 (antibody, V domains shown)
VH: QIQLVQSGPELKKPGETVKISCKASGFTLTNYGMNWVRQTPGKGLKWMGWINTDTGEPTYADDFKGRFAFSLETSASTASLQINNLKNADTATYFCARNPPYYYGTNNAEAMDYWGQGTAVTVSS
VL: DIQMTQTTSSLSASLGDRVTISCSSSQDISNYLNWYQQKPDGTVKVLIYYTSTLHLGVPSRFSGSGSGTDYSLTISNLELEDIATYYCQQYYNLPWTFGGGTKLEIK
In the case of B6, the binding result in assay [2], in assay [3] and in assay [1] was “binds” in each case.

B7: BAP050-chi (antibody, human IgG4 S228P, kappa, V domains shown)
VH: B6 VH with A120T
VL: DIQMTQTTSSLSASLGDRVTISCSSSQDISNYLNWYQQKPDGTVKVLIYYTSTLHLGVPSRFSGSGSGTDYSLTISNLELEDIATYYCQQYYNLPWTFGQGTKVEIKR
Take B7: the binding result in assay [1] was “binds”.
